No constants are given. Whether binding was seen depends on the method and setting. In cells and extracts the contact can be indirect. Binding calls can cover weak binding; strength is not graded here. Tags and fused reporters may be left off the sequences shown.

Sequences of proteins named here, by UniProt entry; tags and fusion partners are left off. A change or cut given only in a name is not applied to a line headed by its entry.
UniProt P02545: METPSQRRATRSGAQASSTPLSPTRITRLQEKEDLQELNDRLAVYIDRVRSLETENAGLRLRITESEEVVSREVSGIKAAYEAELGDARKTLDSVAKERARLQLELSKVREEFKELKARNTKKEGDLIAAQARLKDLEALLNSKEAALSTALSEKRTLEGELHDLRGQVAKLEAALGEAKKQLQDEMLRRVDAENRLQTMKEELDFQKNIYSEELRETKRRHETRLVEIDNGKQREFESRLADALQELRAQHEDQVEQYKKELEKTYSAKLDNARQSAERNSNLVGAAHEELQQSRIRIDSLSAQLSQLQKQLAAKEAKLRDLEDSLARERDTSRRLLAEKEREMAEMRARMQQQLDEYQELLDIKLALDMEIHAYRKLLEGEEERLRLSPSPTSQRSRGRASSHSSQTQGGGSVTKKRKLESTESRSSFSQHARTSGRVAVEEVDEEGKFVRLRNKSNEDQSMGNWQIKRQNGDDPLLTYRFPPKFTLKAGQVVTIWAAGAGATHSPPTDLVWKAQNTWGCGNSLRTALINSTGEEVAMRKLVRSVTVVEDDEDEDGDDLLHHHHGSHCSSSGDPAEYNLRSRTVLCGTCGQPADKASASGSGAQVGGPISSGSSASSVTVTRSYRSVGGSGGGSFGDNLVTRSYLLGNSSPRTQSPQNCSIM

The assay deals with FLAG-tagged progerin (FLAG-LA-Δ50) (UniProt P02545). Kind of assay: co-IP; anti-FLAG immunoprecipitation from cotransfected HEK293 cells (FLAG-lamin A constructs with GFP-BAF constructs), 24 h after transfection; lysis in 50 mM TRIS-HCl pH 8.0, 150 mM NaCl, 1% NP40, 0.1% SDS; antibody overnight at 4°C, protein A/G; blots for FLAG and GFP.

B1: GFP-tagged wild type BAF (BAF-WT) (protein, UniProt O75531 1-89)
chain: MTTSQKHRDFVAEPMGEKPVGSLAGIGEVLGKKLEERGFDKAYVVLGQFLVLKKDEDLFREWLKDTCGANAKQSRDCFGCLREWCDAFL
Take B1: the binding entry is recorded as “binds”.

B2: GFP-tagged BAF mutant BAF-G47E (protein, UniProt O75531 1-89)
chain: MTTSQKHRDFVAEPMGEKPVGSLAGIGEVLGKKLEERGFDKAYVVLEQFLVLKKDEDLFREWLKDTCGANAKQSRDCFGCLREWCDAFL
Regarding B2, the binding result is reported as “no binding”.
